# According to paper PMC5371550, “GABAB receptor attenuation of GABAA currents in neurons of the mammalian central nervous system” (Physiological Reports, 2017):
# System: T1, α-subunit containing GABAA receptor (GABAAR) from human amygdala
# T1 construct: gene GABRA1
# Conditions: agonist; -70 mV, pH 7.4, room temperature; total GABA current (includes minor rho component; GABAB receptors also present)
compound,measurement,value
NCCCC(=O)O [GABA],EC50,69 µM
